Source: patent US20120088262A1, “CYANINE COMPOUNDS, CONJUGATES AND METHOD OF USE” (Millipore Corporation, priority 2010, published 2012)

Test system: live and dead cells
Experiment: Cell viability detection with amine reactive viability dye by flow cytometry
Format: cell-based
Conditions: used as a viability dye
Method: Pipet 100 uL of prepared cells in biological buffer or media in a reaction vessel such as a tube or microwell plate. Add 100 uL of working solution to 100 uL cell sample; mix well and incubate at the room temperature for 15 minutes. Remove supernatant without disturbing the pellet. Wash the cells with PBS with bovine serum albumin (BSA) (range 0.2-10%) per well; centrifuge plate at 1000 rpm for 5 minutes; remove the supernatant by aspiration without disturbing the cell pellet.
Cells were killed by heat or treated with diamide or staurosporine inducers.

## CC(C(=O)ON1C(=O)CCC1=O)c1ccc(C[N+]2=C(/C=C/C=C3\Oc4ccccc4N3Cc3ccc(CC(=O)ON4C(=O)CCC4=O)cc3)C(C)(C)c3cc(S(=O)(=O)[O-])ccc32)cc1 (centres unmarked) [Compound No. 12]
  fluorescence bleedthrough in adjacent channels: minimal fluorescence is seen in the Red2 and NIR2 channel

## CC1(C)C(/C=C/C=C/C=C2\Oc3ccccc3N2Cc2ccc(CC(=O)ON3C(=O)CCC3=O)cc2)=[N+](Cc2ccc(CC(=O)ON3C(=O)CCC3=O)cc2)c2ccc(S(=O)(=O)[O-])cc21 [Compound No. 14]
  fluorescence bleedthrough in adjacent channels: low bleedthrough
